Structures can show the parent of a compound that is named as a salt. About 50 (4%) of roughly 1,200 compounds showed activity. No stated cut-off is given here; in the data, all actives reach 1.3 or more but so do some inactives. The list shows a part of the results.
Each compound was assayed on Lgr5 (MarsCy1-Lgr5-EGFP, U2OS) (assay: cell-surface Lgr5 expression (SCi1 fluorescence, background-subtracted) relative to WT DMSO (fold of DMSO control); higher = more Lgr5 at the plasma membrane, active = hit call of the paper). Conditions: U2OS MarsCy1-Lgr5-EGFP stable; treatment time: overnight; 16 µM; library: Johns Hopkins Clinical Compound Library.

Row | SMILES | cell-surface Lgr5 expression
1 | CC(C)CC(N(C)C)C1(c2ccc(Cl)cc2)CCC1 (configuration not stated) [Sibutramine HCl] | inactive: 1.12
2 | CC(C)[N+](C)(CCC(C(N)=O)(c1ccccc1)c1ccccc1)C(C)C [Isopropamide iodide] | inactive: 1.06
3 | CCCCOC(=O)C1=CC(=O)CC(C)(C)O1 [Butopyronoxyl] | inactive: 1.01
4 | [Bi+3].[O-]c1c(Br)cc(Br)cc1Br.[O-]c1c(Br)cc(Br)cc1Br.[O-]c1c(Br)cc(Br)cc1Br [Bismuth tribromophenate] | inactive: 1.13
5 | C[C@]12CC[C@H]3[C@@H](CC[C@]4(O)C[C@@H](O)CC[C@]34C=O)[C@@]1(O)CC[C@@H]2C1=CC(=O)OC1 [Strophanthidin] | inactive: 0.301
6 | CCN(CC)C(=O)N[C@H]1C=C2c3cccc4[nH]cc(c34)C[C@H]2N(C)C1 [Lisuride] | inactive: 1.1
7 | C=CCN1C[C@H](C(=O)N(CCCN(C)C)C(=O)NCC)C[C@@H]2c3cccc4[nH]cc(c34)C[C@H]21 [Cabergoline] | inactive: 0.958
8 | O=P1(NCCCl)OCCCN1CCCl (configuration not stated) [Ifosfamide] | inactive: 1.19
9 | CN1CC[C@@]2(C)c3cc(O)ccc3N(C)[C@@H]12 [Eseroline] | inactive: 0.813
10 | O=C(O)COc1ccccc1 [Phenoxyacetic acid] | inactive: 1.04
11 | CN1CCN(C(=O)OC2c3nccnc3C(=O)N2c2ccc(Cl)cn2)CC1 (configuration not stated) [Zopiclone] | inactive: 1.01
12 | Oc1ccc(CCN2CCC(Nc3nc4ccccc4n3Cc3ccc(F)cc3)CC2)cc1 [Desmethylastemizole] | inactive: 0.724
13 | NC(=O)C[S+]([O-])C(c1ccccc1)c1ccccc1 (configuration not stated) [Modafinil] | inactive: 1.04
14 | [O-][Cl+2]([O-])O [Potassium chlorate] | inactive: 0.901
15 | CCC(Br)(CC)C(=O)NC(N)=O [Carbromal (Bromodiethylacetylurea)] | inactive: 0.442
16 | CC(=O)OCC1=C(C(=O)O)N2C(=O)[C@@H](NC(=O)CCC[C@@H](N)C(=O)O)[C@H]2SC1 [Cephalosporin c] | inactive: 0.958
17 | CN1CC[C@@]23CCCC[C@@H]2[C@@H]1Cc1ccc(O)cc13 [Dextrorphan] | inactive: 1.26
18 | CN1CC[C@@]23CCCC[C@@H]2[C@@H]1Cc1ccc(O)cc13 [Dextrorphan tartrate] | inactive: 1.16
19 | CNC(C)C(O)c1ccccc1 [(1R,2S)-(-)-Ephedrine] | inactive: 1.16
20 | CC[C@H]1CN2CCc3cc(OC)c(OC)cc3[C@@H]2C[C@@H]1C[C@H]1NCCc2cc(OC)c(OC)cc21 [Emetine] | inactive: 0.217
21 | CC[C@H]1[C@@H]2C[C@H]3[C@@H]4N(C)c5ccccc5[C@]45C[C@@H]([C@@H]2[C@H]5O)N3[C@@H]1O [Ajmaline] | inactive: 1.33
22 | CC1(C)C(C=C(Cl)Cl)C1C(=O)OCc1cccc(Oc2ccccc2)c1 (configuration not stated) [Permethrin] | inactive: 1.15
23 | COc1ccc2c(c1)[nH]c1c(C)nccc12 [Harmine] | inactive: 0.408
24 | COc1ccc(C[C@H]2NC[C@H](O)[C@H]2OC(C)=O)cc1 [Anisomycin] | inactive: 0.0213

An excerpt of these results, field by field.
CC(C)CC(N(C)C)C1(c2ccc(Cl)cc2)CCC1 (configuration not stated) [Sibutramine HCl]
  cell-surface Lgr5 expression: inactive: 1.12
CC(C)[N+](C)(CCC(C(N)=O)(c1ccccc1)c1ccccc1)C(C)C [Isopropamide iodide]
  cell-surface Lgr5 expression: inactive: 1.06
CCCCOC(=O)C1=CC(=O)CC(C)(C)O1 [Butopyronoxyl]
  cell-surface Lgr5 expression: inactive: 1.01

The list goes on:

Row | SMILES | cell-surface Lgr5 expression
25 | CCC(COC(=O)c1cc(OC)c(OC)c(OC)c1)(c1ccccc1)N(C)C (configuration not stated) [Trimebutine] | inactive: 1.22
26 | C=C(C)[C@@H]1[C@H]2OC(=O)[C@@H]1[C@]1(O)C[C@H]3OC34C(=O)O[C@H]2[C@@]41C.CC(C)(O)[C@@H]1[C@H]2OC(=O)[C@@H]1[C@]1(O)C[C@H]3OC34C(=O)O[C@H]2[C@@]41C (some centres not stated) [Picrotoxin] | inactive: 0.483
27 | CO[C@]12C[C@@H](COC(=O)c3cncc(Br)c3)CN(C)[C@@H]1Cc1cn(C)c3cccc2c13 [Nicergoline] | inactive: 1.14
28 | CC(CC(C(N)=O)(c1ccccc1)c1ccccc1)N(C)C (configuration not stated) [Aminopentamide sulfate] | inactive: 1.18
29 | OC[C@@H](O)[C@H]1O[C@@H]2O[C@H](C(Cl)(Cl)Cl)O[C@@H]2[C@H]1O [Chloralose (alpha-Chloralose)] | inactive: 0.958
30 | C[C@]12Cc3c[nH]nc3C[C@@H]1CC[C@@H]1[C@@H]2CC[C@@]2(C)[C@H]1CC[C@]2(C)O [Stanozolol] | inactive: 1.03
31 | CCOC(=O)C1(c2ccccc2)CCN(CCC(C#N)(c2ccccc2)c2ccccc2)CC1.CN1C2CCC1CC(OC(=O)C(CO)c1ccccc1)C2 [Diphenoxylate hydrochloride/Atropine sulfate] | inactive: 1.09
32 | CCC(C)(C)O [Amylene hydrate (tert-Amyl alcohol)] | inactive: 1.2
33 | CC(C)(C)NCC(O)c1ccccc1Cl (configuration not stated) [Tulobuterol] | active: 1.42
34 | OCC(Br)(Br)Br [Tribromoethanol (2,2,2-Tribromoethanol)] | inactive: 1.25
35 | COc1ccc(CCN2CCC(Nc3nc4ccccc4n3Cc3ccc(F)cc3)CC2)cc1 [Astemizole] | inactive: 1.3
36 | CC1=C2[C@H]3OC(=O)[C@@H](C)[C@@H]3CC[C@@]2(C)C=CC1=O [Santonin] | inactive: 1.25
37 | NCC(O)c1cccc(O)c1 (configuration not stated) [Norfenefrine (Norphenylephrine hydrochloride)] | inactive: 1.41
38 | O=C(N/N=C/c1ccc([N+](=O)[O-])o1)c1cc([N+](=O)[O-])cc([N+](=O)[O-])c1O [Nifursol] | inactive: 1.07
39 | CCN [Ethylamine] | inactive: 0.974
40 | CCC(C)(C)C1C(=O)N2CCCC2C2(O)OC(NC(=O)C3CC4c5cccc6[nH]cc(c56)CC4N(C)C3)(C(C)C)C(=O)N12 (configuration not stated) [Ergoloid mesylate] | inactive: 0.76
41 | CNCC(=O)c1ccc(O)c(O)c1 [Adrenalone hydrochloride] | inactive: 1.31
42 | C[N+]1(C)[C@@H]2C[C@@H](OC(=O)[C@H](CO)c3ccccc3)C[C@H]1[C@@H]1O[C@@H]12 [Scopolamine methyl bromide] | inactive: 1.07
43 | CCn1cc(C(=O)O)c(=O)c2cc3c(cc21)OCO3 [Oxolinic acid] | inactive: 0.903
44 | CN(C)C(=O)Oc1cc(OC(=O)N(C)C)cc(C(O)CNC(C)(C)C)c1 (configuration not stated) [Bambuterol] | inactive: 1.21
45 | O=[N+]([O-])[O-].[K+] [Potassium nitrate] | inactive: 0.886
46 | OCCN(CCO)CCO [Trolamine (Triethanolamine hydrochloride)] | inactive: 0.803
47 | COc1ccc(O)c(C(C)(C)C)c1.COc1ccc(O)cc1C(C)(C)C [Butylated hydroxyanisole] | inactive: 1.15

Source: the supplement of paper PMC4683952
